This data set has as its system TCF7 + AF1q (MLLT11). Description: EMSA supershift. The note with it: MCF10a nuclear extract 5 ug, poly(dI-dC) 50 ng, anti-AF1q and anti-TCF7 antibodies; 10 ul: 5 ug nuclear extract, 1X binding buffer (Signosis kit), 50 ng poly(dI-dC), 20 ng probe, 30 min room temperature; 6% PAGE in 0.5X TBE; pH and salt not given; protein in an extract; label: Alexa 488. (A gel shift assay detects complexes by their altered migration in electrophoresis.)

Construct, isoform or probe ends are uncertain for at least one entry. At least one result comes from cells or an extract, where the contact may be indirect.

Take “CTTTTCCTTTGAGGCCTGCCTCAA (double strand) [CD44 promoter region probe (TCF7/LEF1 motif)]”: the binding result is “binds”.

The values above are taken from paper PMC4653036.
